No constants are given. Whether binding was seen depends on the method and setting. In cells and extracts the contact can be indirect. Some results given as binding are weak or reduced against the parent protein; the word gives no strength.
Key:
[1] = biological target: Htra1-HA (UniProt Q92743); assay: co-IP; as a1, with AG1024 (IGF-1R antagonist) added; concentration for this experiment not stated; only the binder purified
[2] = biological target: Htra1-HA (UniProt Q92743); assay: co-IP; HEK 293T-derived wild-type or Htra1 material incubated with human IGF-1 at 4°C for 2 hours; HtrA1 immunoprecipitated overnight; IGF-1 detected on the blot with an IGF-1 antibody; only the binder purified

Sequences of proteins named here, by UniProt entry; tags and fusion partners are left off. Residues count along the entry.
UniProt Q92743, residues 23-480: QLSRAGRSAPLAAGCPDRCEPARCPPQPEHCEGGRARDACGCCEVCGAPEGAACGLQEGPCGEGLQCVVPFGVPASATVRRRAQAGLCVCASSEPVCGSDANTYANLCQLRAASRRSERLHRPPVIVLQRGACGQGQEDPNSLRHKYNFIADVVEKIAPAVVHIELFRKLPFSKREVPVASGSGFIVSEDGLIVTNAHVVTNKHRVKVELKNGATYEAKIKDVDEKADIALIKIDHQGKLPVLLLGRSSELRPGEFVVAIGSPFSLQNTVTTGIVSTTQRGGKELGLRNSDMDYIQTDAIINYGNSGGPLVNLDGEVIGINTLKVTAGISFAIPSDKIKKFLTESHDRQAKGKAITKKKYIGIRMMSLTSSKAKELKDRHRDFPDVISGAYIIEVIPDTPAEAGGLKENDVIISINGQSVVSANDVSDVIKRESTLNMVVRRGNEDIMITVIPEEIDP
UniProt P05019, residues 49-118: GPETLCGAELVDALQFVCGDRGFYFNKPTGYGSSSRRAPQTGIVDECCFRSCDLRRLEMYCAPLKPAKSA

binding [1]: no binding (condition: with AG1024) | binding [2]: binds
Substance: human IGF-1 (from UniProt P05019 49-118) (ligand)
